Test system: Aβ1-42-injected mice (short-term spatial memory)
Assay: Alzheimer's disease mouse model using intrahippocampal injection of oligomers of amyloid beta; forced alternation Y-maze test
Type: in vivo, C57BL6 mice
Conditions: Aβ1-42 (2 μL/side, 100 μM) injected mice, n = 12; daily treatment; Compounds 5 mg/kg p.o., Donepezil 1 mg/kg i.p.; group mean; Aβ1-42 + vehicle group 78.9, sham 115.5

COc1cc2c(cc1OC)C(=O)C(CC1CCN(Cc3ccccc3)CC1)C2 (stereo not shown) [Donepezil, reference compound]
Cumulative duration (sec) in the new arm of the Y-maze: 134.6 s

Source: US20250304575A1, “COMPOUNDS AND PHARMACEUTICAL COMPOSITIONS THEREOF FOR THE TREATMENT OF NEURODEGENERATIVE DISORDERS” (Galapagos NV, priority 2022, published 2025)
